Results are given in words; binding and its absence hold for the method and conditions named. Binding seen in cells or lysates may run through a third protein. Binding calls can cover weak binding; strength is not graded here.
Tests used:
[1] = biological target: endogenous SET (mouse (endogenous in adult mouse brain slices)) (UniProt Q9EQU5); assay: co-IP; lysates of adult mouse brain slices incubated 5 h 30 min with or without recombinant SET (4 μM); IP with polyclonal anti-SET (recognises endogenous and recombinant SET) and protein A Sepharose, overnight 4°C; Hepes 10 mM, NaCl 150 mM, CaCl2 2 mM, Triton X-100 1% pH 7.4; blot for total PP2A C subunit, then methyl-PP2A after stripping
[2] = biological target: recombinant HA-tagged SET protein fused to the Penetratin vector (human) (UniProt Q01105); assay: as above

Chains of the proteins cited; added tags and fusions are not shown. Lines headed by an entry give the natural chain unless they say otherwise; changes in a name come on top.
UniProt Q9EQU5: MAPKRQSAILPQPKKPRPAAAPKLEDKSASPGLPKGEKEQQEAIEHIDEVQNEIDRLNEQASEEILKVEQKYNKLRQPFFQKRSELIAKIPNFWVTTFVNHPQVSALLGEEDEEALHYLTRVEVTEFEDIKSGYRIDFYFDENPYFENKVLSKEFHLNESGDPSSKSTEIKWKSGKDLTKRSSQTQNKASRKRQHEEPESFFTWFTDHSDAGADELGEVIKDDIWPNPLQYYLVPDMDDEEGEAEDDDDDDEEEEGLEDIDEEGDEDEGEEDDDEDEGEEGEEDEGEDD
UniProt Q01105: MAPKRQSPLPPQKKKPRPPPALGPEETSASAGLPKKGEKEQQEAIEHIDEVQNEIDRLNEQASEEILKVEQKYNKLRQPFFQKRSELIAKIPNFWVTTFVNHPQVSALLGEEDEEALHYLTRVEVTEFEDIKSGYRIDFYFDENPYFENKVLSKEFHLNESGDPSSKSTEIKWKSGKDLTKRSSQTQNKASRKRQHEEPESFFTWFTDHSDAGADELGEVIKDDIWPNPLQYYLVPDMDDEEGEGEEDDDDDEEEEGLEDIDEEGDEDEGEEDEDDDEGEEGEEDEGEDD
UniProt P63330: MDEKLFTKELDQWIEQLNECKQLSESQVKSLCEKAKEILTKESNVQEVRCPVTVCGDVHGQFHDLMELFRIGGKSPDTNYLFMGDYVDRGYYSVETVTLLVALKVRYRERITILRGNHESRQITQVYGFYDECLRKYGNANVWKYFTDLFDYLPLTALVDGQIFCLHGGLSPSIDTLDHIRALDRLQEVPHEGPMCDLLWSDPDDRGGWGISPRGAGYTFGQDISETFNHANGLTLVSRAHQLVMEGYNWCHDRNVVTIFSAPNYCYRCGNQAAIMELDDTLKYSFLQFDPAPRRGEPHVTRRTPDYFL

binding [1]: binds | binding [2]: binds
Substance: PP2A (total PP2A, detected with an anti-PP2A C subunit antibody) (from UniProt P63330) (enzyme)

— paper PMC4086270
